From PubChem BioAssay AID2685 (National Center for Advancing Translational Sciences (NCATS), 2010)
The list shows a part of the results. Shown are side measurements of this screen, not its main read-out; they come without a call. Compounds called inactive in the main read-out are mostly missing here. Words in brackets tell the shape of the fitted curve; partial curves, single points and poor fits give uncertain potencies.

Assay: qHTS Assay for Lipid Storage Modulators in Drosophila S3 Cells;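 on cell number change: cells counted by Cell Tracker Red CMTPX staining in the red channel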
Settings: BODIPY lipid droplet fluorescence, 18-24 h; for cell number change: measured here: cell count max response, cells fed with added oleic acid
Outline: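 Drosophila S3 cells loaded with oleic acid (400 uM, as added) and compounds at several concentrations; lipid droplets imaged by 488-nm laser-scanning cytometry, 500–530 nm intensity and object ratio to cell channel. Percent activity normalized to 20 uM Triacsin C.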

[1] = measured here: lipid fluorescence (Fed channel) AC50, cells fed with added oleic acid
[2] = measured here: cell number channel AC50, cells fed with added oleic acid

| SMILES | cell number change [%] | AC50 [1] | AC50 [2] |
| --- | --- | --- | --- |
| O=C1COc2ccc(C(=O)c3ccccc3C(=O)NCc3ccco3)cc2N1 | 23.6 | 29.1 µM [rising, single point] |  |
| BrC(=C\c1ccccc1)/C=N/Nc1nc2ccccc2[nH]1 | 32.4 | 23.1 µM [rising, single point] | 6.51 µM [rising, partial curve] |
| COc1ccc(C(=O)c2oc3nc(C)cc(C)c3c2N)cc1 | -6.35 | 0.326 µM [rising, full curve] |  |
| CCC1CCCCN1CC(=O)Nc1cc(C)nn1-c1nc(C)cc(C)n1 (centres undefined) | 77.5 |  | 29.1 µM [rising, single point] |
| CN1CCN(S(=O)(=O)c2ccc(CNC(=O)c3ccccc3)s2)CC1 | -13.9 | 6.51 µM [rising, partial curve, poor fit] |  |
| CCOc1ccccc1NC(=O)c1ccc(S(=O)(=O)N2CCOCC2)cc1 | 32.8 | 2.91 µM [rising, single point] | 2.91 µM [rising, full curve] |
| CCN(CC)S(=O)(=O)c1ccc(N2CCCC2)c(NC(=O)c2nn(C)c(=O)c3ccccc23)c1 | 14.8 |  |  |
| CC(C)(C#N)NC(=O)C(=O)c1c(-c2ccccc2)cc2ccccn12 | -45 | 0.82 µM [falling, full curve] | 0.259 µM [falling, full curve, poor fit] |
| COc1ccc(CC(=O)N2CC(C)CC(C)C2)cc1 (centres undefined) |  |  | 5.17 µM [rising, partial curve, poor fit] |
| COc1ccccc1C(=O)COC(=O)c1cc(S(=O)(=O)N2CCCCC2)ccc1N1CCOCC1 | 11 | 29.1 µM [falling, single point] |  |
| CCN(CC)S(=O)(=O)c1ccc(C)c(NC(=O)COC(=O)c2ccc(C)c(S(=O)(=O)N3CCOCC3)c2)c1 | 41.2 | 29.1 µM [rising, single point] | 29.1 µM [rising, single point] |
| COc1ccc(-c2cn[nH]c2-c2ccc(OCc3ccccc3)cc2O)cc1OC | -15 | 1.64 µM [falling, full curve, poor fit] |  |
| Cc1ccc(CNC(=O)c2sc3nc4c(c(C(F)(F)F)c3c2N)CCC4)cc1 | 19.5 | 0.291 µM [rising, partial curve, poor fit] |  |
| CCCCCOC(=O)c1[nH]c2c(c1C)C(=O)C(C(=O)OC)C(C)C2 (centres undefined) | -54.1 | 29.1 µM [falling, single point] | 23.1 µM [falling, partial curve] |
| CCOC(=O)C1CCN(C(=O)Nc2ccc(Cl)cc2)CC1 | 0.305 | 4.61 µM [rising, full curve] |  |
| O=C(CSc1nc2ccc(Nc3nc(N4CCOCC4)nc(N4CCOCC4)n3)cc2s1)Nc1ccccc1F | -4.25 | 23.1 µM [rising, partial curve] |  |
| CCOc1ccccc1NC=C1C(=O)OC2(CCCCC2)OC1=O | 5.29 | 20.6 µM [rising, single point] |  |
| COc1ccc(Cn2c(=O)[nH]c3cc(C(=O)NCCCN4CCCC4)ccc3c2=O)cc1 | 20.9 | 0.13 µM [falling, full curve, poor fit] |  |
| O=C(NCc1ccc2c(c1)OCO2)c1cc(-c2ccncc2)nc2ccccc12 |  | 6.51 µM [rising, single point] |  |

Molecules shown so far that contain a thiophene ring, fused or not, in the order listed:

| SMILES | cell number change [%] | AC50 [1] | AC50 [2] |
| --- | --- | --- | --- |
| CN1CCN(S(=O)(=O)c2ccc(CNC(=O)c3ccccc3)s2)CC1 | -13.9 | 6.51 µM [rising, partial curve, poor fit] |  |
| Cc1ccc(CNC(=O)c2sc3nc4c(c(C(F)(F)F)c3c2N)CCC4)cc1 | 19.5 | 0.291 µM [rising, partial curve, poor fit] |  |

(next part)

| SMILES | cell number change [%] | AC50 [1] | AC50 [2] |
| --- | --- | --- | --- |
| N#Cc1c(C(F)(F)F)cc(-c2cccc(Cl)c2)[nH]c1=O | 17.7 | 2.06 µM [falling, partial curve] |  |
| O=C1NC(=Nc2cccc([N+](=O)[O-])c2)SC1(CO)CO | 2.78 |  |  |
| CCOc1ccc(S(=O)(=O)N2CCCC(C(=O)NCc3ccccc3)C2)cc1 (centres undefined) | 20.8 |  |  |
| CCCC(=O)NC(=S)Nc1ccccc1OC | -0.319 | 1.64 µM [falling, partial curve] |  |
| COc1ccccc1C1C(C(=O)NCc2ccccc2)=C(C)Nc2ncnn21 (centres undefined) | 19.4 | 29.1 µM [rising, single point] |  |
| COc1ccc(N=C2SC(C(=O)O)CC(=O)N2C)cc1 (centres undefined) | -10 |  |  |
| CC1CC(C)C[N+](=C2C=C(N3CCCC3)CC(C)(C)C2)C1 (centres undefined) | -56.8 | 23.1 µM [falling, partial curve, poor fit] |  |
| N/C(Cc1ccc(Cl)cc1Cl)=N\OC(=O)Cc1ccc(Cl)cc1 | -0.553 | 1.64 µM [rising, partial curve, poor fit] |  |
| COc1ccc2nc(Nc3nc(CSc4nc5ccccc5[nH]4)cc(=O)[nH]3)nc(C)c2c1 | -75.2 | 6.51 µM [rising, partial curve, poor fit] | 23.1 µM [falling, single point] |
| CSc1ccc(-c2sc(Nc3cccc4ccccc34)n[n+]2-c2ccccc2)cc1 | -13.8 | 8.2 µM [falling, single point] |  |
| O=C(CSc1nc(=O)n2ccccc2n1)NCc1ccc(F)cc1 | -7.13 | 3.66 µM [falling, single point] | 3.26 µM [falling, single point] |
| COC(=O)CN(c1ccc(F)cc1)S(=O)(=O)c1ccccc1 |  | 29.1 µM [rising, single point] | 0.082 µM [falling, full curve, poor fit] |
| Cc1ccc(C(C)(C)C)cc1S(=O)(=O)Nc1ncnc2sccc12 | 37.4 |  | 29.1 µM [rising, single point] |
| CC(=O)Nc1ccc(SC[C@H](C)CN2CC[C@H](C(C)(C)C)CCC2=O)cc1 | 8.1 | 0.461 µM [falling, partial curve, poor fit] | 2.06 µM [falling, partial curve] |
| O=C(COC(=O)c1cc(-c2cccs2)nn1-c1ccccc1)Nc1cccc([N+](=O)[O-])c1 | 9.15 | 6.51 µM [falling, single point] |  |
| CCOC(=O)Nc1cc2c(cc1C(C)=O)OCO2 |  | 0.731 µM [rising, single point] |  |
| COc1ccc(NS(=O)(=O)c2cccc(NC(=O)c3ccc(Cl)nc3)c2)cc1 | -12.9 |  |  |
| CCOC(=O)C1CCCN(C(=O)c2cccs2)C1 (centres undefined) | -169 |  | 18.4 µM [falling, single point] |
| CC(C)(C)c1[nH]nc2c1C(C1C=CCCC1)C(C#N)=C(N)O2 (centres undefined) | -30.4 | 23.1 µM [falling, single point] | 29.1 µM [falling, single point] |

Reformatted: entries from further up
CCOc1ccc(S(=O)(=O)N2CCCC(C(=O)NCc3ccccc3)C2)cc1 (centres undefined)
  cell number change [%]: 20.8
CCCC(=O)NC(=S)Nc1ccccc1OC
  cell number change [%]: -0.319; AC50 [1]: 1.64 µM [falling, partial curve]

More records follow:

| SMILES | cell number change [%] | AC50 [1] | AC50 [2] |
| --- | --- | --- | --- |
| Cc1ccc(NS(=O)(=O)c2c(C(=O)N3CCCCCC3)c(C)n(C)c2C)cc1C |  | 20.6 µM [rising, single point] |  |
| COc1ccc(N2C(=O)c3ccc(C(=O)Nc4ccc(NC(C)=O)cc4)cc3C2=O)cc1 | -16.7 |  | 0.00461 µM [falling, full curve, poor fit] |
| COC(=O)Cn1c2ccc(C)cc2c2nc(C)sc21 | -21.8 |  |  |
| Cc1nnc(N2CCC(C(=O)N3CCCCCC3)CC2)c2nn(-c3ccc(Cl)cc3)c(C)c12 | -15.6 | 3.66 µM [falling, partial curve, poor fit] | 6.51 µM [falling, single point] |
| CC(C)Cn1cc(C(=O)NCc2cccs2)c2c3ccccc3n(C)c2c1=O | -39.3 |  | 18.4 µM [falling, partial curve, poor fit] |
| N#C/C(=C\c1ccc(-c2cccc(Cl)c2)o1)C(=O)Nc1cccc2cccnc12 | -3.78 | 0.517 µM [rising, single point] |  |
| Cc1cccc(NC(=O)c2ccc(COc3ccc(Cl)cc3Cl)o2)n1 | 59.5 |  | 11.6 µM [rising, partial curve, poor fit] |
| CCCN1C2=NS(=O)(=O)CCN2c2ccccc21 | -0.357 |  |  |
| O=C(Nc1nc(-c2ccccn2)cs1)C1COc2ccccc2O1 (centres undefined) | -8.76 | 7.31 µM [falling, partial curve] |  |
| CNc1ccccc1C(C)(C)c1ccn[nH]1 | -44.9 |  | 20.6 µM [falling, single point] |
| CC1CCCCC12NC(=O)N(CC(=O)Nc1ccc3[nH]c(=O)[nH]c3c1)C2=O (centres undefined) | -37.5 | 1.3 µM [falling, full curve] | 0.92 µM [falling, full curve] |
| O=C(O)c1cccc(Nc2nc(-c3cc4ccccc4oc3=O)cs2)c1 | -33.2 |  | 0.082 µM [falling, full curve, poor fit] |
| O=C(CCCCCCC(=O)NCc1ccccc1)NCc1ccccc1 | -8.47 | 16.4 µM [rising, partial curve] |  |
| COc1ccc(Cl)cc1/C=N/NC(=O)c1c(-c2ccccc2)noc1C | -26.6 | 0.58 µM [falling, single point] |  |
| CN(Cc1ccc(F)cc1)C(=O)c1cc(COc2ccc(-n3cncn3)cc2)on1 | -11.3 | 29.1 µM [falling, single point] |  |
| CCOC(=O)c1ccccc1NC(=O)COc1coc(CN2CCc3ccccc32)cc1=O | 58.6 |  | 16.4 µM [rising, single point] |
| CC1(C)CC(=O)C2=C(C1)N1C(=C(C#N)C2c2ccccc2Cl)N=C(N)c2ccccc21 (centres undefined) | 5.81 | 4.11 µM [rising, single point] |  |
| Cc1[nH]nc2c1C(c1ccoc1)C(C#N)=C(N)O2 (centres undefined) | -11.3 | 0.058 µM [falling, full curve] |  |
| COc1nc(-c2ccccc2)ccc1-c1noc(-c2ccc(F)cc2)n1 | -20 |  | 0.0259 µM [falling, full curve, poor fit] |
